The other results are listed elsewhere or left out.
Molecular target: T1, OsSMF1 (Oryza sativa, UniProt Q6ZLB0 1-436)
T1 sequence: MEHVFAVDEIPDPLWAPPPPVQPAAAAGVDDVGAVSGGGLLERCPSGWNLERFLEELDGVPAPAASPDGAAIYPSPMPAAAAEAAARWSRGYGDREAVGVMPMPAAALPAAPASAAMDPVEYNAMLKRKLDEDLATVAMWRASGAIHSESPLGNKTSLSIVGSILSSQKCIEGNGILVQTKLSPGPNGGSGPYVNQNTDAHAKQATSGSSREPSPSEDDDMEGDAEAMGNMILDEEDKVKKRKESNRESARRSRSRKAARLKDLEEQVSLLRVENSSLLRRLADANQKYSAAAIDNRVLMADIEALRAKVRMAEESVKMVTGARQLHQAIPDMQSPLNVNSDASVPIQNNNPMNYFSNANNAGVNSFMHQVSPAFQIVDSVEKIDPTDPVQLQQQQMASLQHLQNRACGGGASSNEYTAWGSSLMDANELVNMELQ
Assay: protein-binding microarray (RPBM); PBS, 2% BSA, 51.3 ng/ul salmon testes DNA, 50 uM zinc acetate, 200 nM TF, 25 C, 1 h; high values mean tight binding
Conditions: protein: recombinant; tags: N-terminal polyhistidine and DsRed monomer fusion (pET32a); chain copies: 2; label: CyDye5-dUTP incorporated in the synthesized complementary strand; 3' TTTTT single-stranded linker to array surface; dsDNA, one strand shown
Method in brief: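 Transcription factors were each fused at the N-terminus to a polyhistidine tag plus DsRed and expressed in E. coli BL21-CodonPlus before Ni–NTA purification. Binding to a double-stranded custom Agilent array was carried out with 200 nM protein at 25 °C for 1 h in PBS, 2% BSA, salmon testes DNA and 50 µM zinc acetate. The binding signal is per-feature fluorescence intensity, in arbitrary units, on an Axon 4000B scanner.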

Sequence	binding signal
AACAAAGCCAACGTCCCACCACCACCACACGCGCGCGCTCCGGAGTCACCTAGTGCAG	3240 fluorescence intensity (a.u.)
ATCTTGACAAATATTATCTCAATAACAGGTCACTGAGATGCGGAGTCACCTAGTGCAG	3250 fluorescence intensity (a.u.)
TTAGAGGACACATTCGTGTGGATGTGACTGTGGTGTTGCGCGGAGTCACCTAGTGCAG	3300 fluorescence intensity (a.u.)
AACAAATTCAAACAATTATTCTGACTTCGCCACCTATCGACGGAGTCACCTAGTGCAG	3780 fluorescence intensity (a.u.)
GAGGCCGACGGCGACGGCCTCGTGGCTCTTGGCAACGCCCCGGAGTCACCTAGTGCAG	3500 fluorescence intensity (a.u.)
GAACACACGATTTGTCAATATCCACGTTAGCTAGCAAAAGCGGAGTCACCTAGTGCAG	4600 fluorescence intensity (a.u.)
ATCATCCCTGTCCCTGTCCGACGTGGCCGTCCCACGTGGCCGGAGTCACCTAGTGCAG	33700 fluorescence intensity (a.u.)
ACATCTCACATGATGAGGATGAGTCGTCGTCGTTTGCAATCGGAGTCACCTAGTGCAG	3570 fluorescence intensity (a.u.)
CAGTAACCACGTCCTCTAACTTTACGTCAGATGATCTCAACGGAGTCACCTAGTGCAG	4790 fluorescence intensity (a.u.)
TGCTGCCCCGCCAACATCGTGTTGAATCTCGTCGATATATCGGAGTCACCTAGTGCAG	3510 fluorescence intensity (a.u.)
AACTTAAAAGCCAACTTAAACACGTATGATGTATCACAGTCGGAGTCACCTAGTGCAG	6920 fluorescence intensity (a.u.)
CGCTCCCGCTACCCCACCACACGCGTCATGAGGCATCCAGCGGAGTCACCTAGTGCAG	4440 fluorescence intensity (a.u.)
AGGAGATGGGGCGCTGGCCACGTGGAACCCCGCGCGCTTTCGGAGTCACCTAGTGCAG	8060 fluorescence intensity (a.u.)
GGGAGTTCATACTTAAACATGTAGTTTGTACTATTTATCTCGGAGTCACCTAGTGCAG	5080 fluorescence intensity (a.u.)
TAGGCGGGGTCCATGCGGGTCCCATACTGACTCAGCCGCCCGGAGTCACCTAGTGCAG	8670 fluorescence intensity (a.u.)
CCAAATCAAATTGCCACGTCAATGCCACATCGATGCCACACGGAGTCACCTAGTGCAG	19700 fluorescence intensity (a.u.)
TCTCTCTTTCTGATGACTACACTTATTTGTTCTGATATCACGGAGTCACCTAGTGCAG	3180 fluorescence intensity (a.u.)
AGCAGCGGAGAGATGATGACAACGTACGGCGATGGTGGAACGGAGTCACCTAGTGCAG	3400 fluorescence intensity (a.u.)
CCTGATCGCCTCCTCCGCCACCGCCGTGTTCGATTCGTCTCGGAGTCACCTAGTGCAG	3260 fluorescence intensity (a.u.)
TTATCTTGGTGTCATACAGGTTATAATCGAAAGATCTATGCGGAGTCACCTAGTGCAG	3470 fluorescence intensity (a.u.)
GATGGAGAATTGAGGAAGGAACTCCTTTCTTTTCAATACCCGGAGTCACCTAGTGCAG	3400 fluorescence intensity (a.u.)

Sequence	binding signal
TTTTGGCACGAAGCAATGAAGCACGATGGGCCGTACGGCCCGGAGTCACCTAGTGCAG	25500 fluorescence intensity (a.u.)
TCCGTAGGAGTACTTGGCAGTTGGCTATACTCGCTTCATCCGGAGTCACCTAGTGCAG	3300 fluorescence intensity (a.u.)
CGTTGGACACGGATATCCACGATTGCACTTATTTTGAGACCGGAGTCACCTAGTGCAG	3440 fluorescence intensity (a.u.)
GTCCACCCGTTTATTGCATGTCAATTAGATGATTACGAAACGGAGTCACCTAGTGCAG	3720 fluorescence intensity (a.u.)
TGTACAATGCTCGCTGACAGGTGGGCCCACCACCACCACGCGGAGTCACCTAGTGCAG	4100 fluorescence intensity (a.u.)
CAAAGAAAATTCTGCATTGCATTCCCGTCGTCCGTTCTAACGGAGTCACCTAGTGCAG	3880 fluorescence intensity (a.u.)
AGATTTGCAATATATACTTACTGTCTTACTCACTGCATTTCGGAGTCACCTAGTGCAG	3180 fluorescence intensity (a.u.)
ACTCTACTCGGCGCGCGCGCGCGTCCCCATATCGTCACAACGGAGTCACCTAGTGCAG	3250 fluorescence intensity (a.u.)
TATTGAATGAATTAGCTATAGATGATTTGGAGGTAGGATTCGGAGTCACCTAGTGCAG	3330 fluorescence intensity (a.u.)
ATGAGTGTGAGTGTGGCATGCGTGCATGTGTAATAGTAAACGGAGTCACCTAGTGCAG	3480 fluorescence intensity (a.u.)
GCCGGATCCGCCACCATGCGCCTTGCCGCCGCACGGCCTTCGGAGTCACCTAGTGCAG	3380 fluorescence intensity (a.u.)
TACCATCGCACAACCAACAAGCTTACGTACCGTAGCTCACCGGAGTCACCTAGTGCAG	3520 fluorescence intensity (a.u.)
CCGGAAGAGGCCGGTGAGGAAGTCGAACAGCTGGGGCTCGCGGAGTCACCTAGTGCAG	4830 fluorescence intensity (a.u.)
GTTCGTGTCGATTTGACTGTGCGTGTCTCTTATGGAGTTTCGGAGTCACCTAGTGCAG	3730 fluorescence intensity (a.u.)
GCTGACACGCCGCTTCACCTCTCCACGTCTCCACGCCGTCCGGAGTCACCTAGTGCAG	3910 fluorescence intensity (a.u.)
TAGAACGAGCCGTTCACCGCCGTGACGCACGGGTGCATGCCGGAGTCACCTAGTGCAG	4370 fluorescence intensity (a.u.)
GGTGCGACGCGAGACGCCGCGCCACGCGTTGTTTCAGGGACGGAGTCACCTAGTGCAG	4210 fluorescence intensity (a.u.)
TGTGAGCACGGATCGACGATGAAAACAGACGAAGAACATTCGGAGTCACCTAGTGCAG	27400 fluorescence intensity (a.u.)
TTTAAATGCCTTCGTTACCTTTACTCCGAGTGACATTCATCGGAGTCACCTAGTGCAG	3700 fluorescence intensity (a.u.)
CGTCCCAAAATATAACCACGTAGGATAAAATGAGGCCTATCGGAGTCACCTAGTGCAG	4310 fluorescence intensity (a.u.)
GCCACACCTATCTCAATGACATGTGGGTCCACATGTGTCTCGGAGTCACCTAGTGCAG	3400 fluorescence intensity (a.u.)

Quoted at random: three records from the list, in no set order.
Sequence	binding signal
GGTGCGACGCGAGACGCCGCGCCACGCGTTGTTTCAGGGACGGAGTCACCTAGTGCAG	4210 fluorescence intensity (a.u.)
GCTGACACGCCGCTTCACCTCTCCACGTCTCCACGCCGTCCGGAGTCACCTAGTGCAG	3910 fluorescence intensity (a.u.)
CAAAGAAAATTCTGCATTGCATTCCCGTCGTCCGTTCTAACGGAGTCACCTAGTGCAG	3880 fluorescence intensity (a.u.)
